{"source": "the supplement of paper PMC7024190", "note": "Structures can show the parent of a compound that is named as a salt. This is one part of the list. Single values are uncertain here, since repeats match poorly.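 Human embryonic kidney cells were transiently transfected with a plasmid bearing a Renilla luciferase gene under the HSV-TK promoter. This first-round screen tests roughly ten thousand compounds for ones that increase reporter output.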"}
{"test_system": "HEK 293FT", "assay": "log relative Renilla luciferase luminescence (reporter expression vs reference, reference not stated) (log (base not stated)); higher = higher recombinant reporter expression", "conditions": "10 µM; time after transfection 48 h"}
{"smiles": "Cc1noc(NS(=O)(=O)c2ccc(N)cc2)c1C", "note": "[Sulfisoxazole]", "log": 0.0496}
{"smiles": "CCc1cccc2c3c([nH]c12)C(CC)(CC(=O)O)OCC3", "note": "(stereo unspecified) [Etodolac]", "log": -0.0154}
{"smiles": "CC1=C(CC(=O)O)c2cc(F)ccc2/C1=C\\c1ccc([S+](C)[O-])cc1", "note": "(stereo unspecified) [Sulindac]", "log": 0.146}
{"smiles": "CC(Oc1c(Cl)cccc1Cl)C1=NCCN1", "note": "(stereo unspecified) [Lofexidine]", "log": 0.06}
{"smiles": "CO/N=C(\\C(=O)N[C@@H]1C(=O)N2C(C(=O)O)=C(C[N+]3(C)CCCC3)CS[C@H]12)c1csc(N)n1", "note": "[Cefepime hydrochloride]", "log": 0.113}
{"smiles": "CCOC(=O)[C@H](CCc1ccccc1)N[C@@H](C)C(=O)N1CCC[C@H]1C(=O)O", "note": "[Enalapril maleate]", "log": 0.0542}
{"smiles": "CC(=O)Nc1ccc(O)cc1", "note": "[Acetaminophen]", "log": -0.0175}
{"smiles": "COc1ccc2[nH]c([S+]([O-])Cc3ncc(C)c(OC)c3C)nc2c1", "note": "(stereo unspecified) [Omeprazole]", "log": 0.000654}
{"smiles": "Cc1ccccc1N1C(=O)c2cc(S(N)(=O)=O)c(Cl)cc2NC1C", "note": "(stereo unspecified) [Metolazone]", "log": -0.0137}
{"smiles": "Cc1cc(-n2c(=O)[nH]c(=O)n(C)c2=O)ccc1Oc1ccc(SC(F)(F)F)cc1", "note": "[Toltrazuril]", "log": -0.00526}
{"smiles": "C=CC1=C(C(=O)O)N2C(=O)[C@@H](NC(=O)/C(=N\\OCC(=O)O)c3csc(N)n3)[C@H]2SC1", "note": "[Cefixime]", "log": -0.00154}
{"smiles": "OCCOCCN1CCN(C(c2ccccc2)c2ccc(Cl)cc2)CC1", "note": "(stereo unspecified) [Hydroxyzine dihydrochloride]", "log": 0.0238}
{"smiles": "Nc1cc(-c2ccncc2)c[nH]c1=O", "note": "[Amrinone]", "log": 0.0308}
{"smiles": "c1ccc2c(c1)CCCc1cc(NCCN3CCOCC3)nnc1-2", "log": 0.0824}
{"smiles": "CC(N)C12CC3CC(CC(C3)C1)C2", "note": "(stereo unspecified) [Rimantadine Hydrochloride]", "log": -0.00861}
{"smiles": "CN(CCOc1ccc(CC2SC(=O)NC2=O)cc1)c1ccccn1", "note": "(stereo unspecified) [Rosiglitazone Hydrochloride]", "log": 0.0676}
{"smiles": "CCC(=O)OCC(=O)[C@@]1(OC(=O)CC)[C@H](C)C[C@H]2[C@H]3[C@H]([C@@H](O)C[C@@]21C)[C@@]1(C)C=CC(=O)C=C1C[C@H]3Cl", "note": "[Alclometasone dipropionate]", "log": -0.242}
{"smiles": "CCCc1nc(C(C)(C)O)c(C(=O)O)n1Cc1ccc(-c2ccccc2-c2nnn[nH]2)cc1", "note": "[Olmesartan]", "log": 0.0581}
{"smiles": "OC(CCN1CCCCC1)(c1ccccc1)C1CCCCC1", "note": "(stereo unspecified) [Trihexyphenidyl-D,L Hydrochloride]", "log": 0.146}
{"smiles": "N=C(N)N/N=C/c1c(Cl)cccc1Cl", "note": "[Guanabenz acetate]", "log": -0.313}
{"smiles": "CN(C)CCOC(=O)COc1ccc(Cl)cc1", "note": "[Meclofenoxate hydrochloride]", "log": 0.0105}
{"smiles": "CC(Oc1ccccc1)C(=O)N[C@@H]1C(=O)N2[C@@H]1SC(C)(C)[C@@H]2C(=O)O", "note": "(stereo partly specified) [Phenethicillin potassium salt]", "log": -0.284}
{"smiles": "N[C@@H](C(=O)N[C@@H]1C(=O)N2C(C(=O)O)=C(Cl)CS[C@H]12)c1ccccc1", "note": "[Cefaclor hydrate]", "log": -0.0555}
{"smiles": "COc1ccc(C(=O)NCc2ccc(OCCN(C)C)cc2)cc1OC", "note": "[Itopride]", "log": 0.0364}
{"smiles": "O=C1c2ccccc2S(=O)(=O)N1CCCCN1CCN(c2ncccn2)CC1", "note": "[Ipsapirone]", "log": -0.0492}
{"smiles": "Cn1c([N+](=O)[O-])cnc1COC(N)=O", "note": "[Ronidazole]", "log": 0.11}
{"smiles": "CN(C)[C@@H]1C(O)=C(C(N)=O)C(=O)[C@@]2(O)C(O)=C3C(=O)c4c(O)ccc(Cl)c4[C@@H](O)[C@H]3C[C@@H]12", "note": "[Demeclocycline hydrochloride]", "log": -0.0169}
{"smiles": "O=C(OCCOCCO)c1ccccc1Nc1cccc(C(F)(F)F)c1", "note": "[Etofenamate]", "log": -0.128}
{"smiles": "O=C(O)[C@H]1/C(=C/CO)O[C@@H]2CC(=O)N21", "note": "[Potassium clavulanate]", "log": -0.15}
{"smiles": "Cc1cnc(C(=O)O)c[n+]1[O-]", "note": "[Acipimox]", "log": -0.137}
{"smiles": "CC(C)(C)NC[C@H](O)COc1ccccc1C1CCCC1", "note": "[Penbutolol sulfate]", "log": -0.0418}
{"smiles": "COc1ccc(C(=O)c2ccccc2O)c(O)c1", "note": "[Dioxybenzone]", "log": 0.0657}
{"smiles": "CN1CCC[C@@H]1CCO[C@](C)(c1ccccc1)c1ccc(Cl)cc1", "note": "[Clemastine fumarate]", "log": 0.0619}
{"smiles": "CCOc1ccc(NC(C)=O)cc1", "note": "[Phenacetin]", "log": 0.131}
{"smiles": "COc1cc2ncnc(Nc3ccc(F)c(Cl)c3)c2cc1OCCCN1CCOCC1", "note": "[Gefitinib]", "log": 0.119}
{"smiles": "CC(C(=O)O)c1ccc(C(=O)c2cccs2)cc1", "note": "(stereo unspecified) [Suprofen]", "log": -0.263}
{"smiles": "CCCCC[C@H](O)/C=C/[C@H]1[C@H](O)CC(=O)[C@@H]1CCCCCCC(=O)O", "note": "[Alprostadil]", "log": -0.048}
{"smiles": "CCN1CCC[C@H]1CNC(=O)c1c(O)c(Cl)cc(Cl)c1OC", "note": "[Raclopride]", "log": -0.0681}
{"smiles": "CN[C@@H]1[C@H](O[C@H]2[C@H](O[C@H]3[C@H](O)[C@@H](O)[C@H](NC(=N)N)[C@@H](O)[C@@H]3NC(=N)N)O[C@@H](C)[C@]2(O)CO)O[C@@H](CO)[C@H](O)[C@H]1O", "note": "[Dihydrostreptomycin sulfate]", "log": 0.0641}
{"smiles": "NCc1ccc(S(N)(=O)=O)cc1", "note": "[Mafenide hydrochloride]", "log": 0.0238}
{"smiles": "CCc1oc2ccccc2c1C(=O)c1cc(Br)c(O)c(Br)c1", "note": "[Benzbromarone]", "log": -0.807}
{"smiles": "CC/C(=C(\\c1ccccc1)c1ccc(OCCN(C)C)cc1)c1ccccc1", "note": "[Tamoxifen citrate]", "log": 0.136}
{"smiles": "C#C[C@]1(O)CC[C@H]2[C@@H]3CCC4=C(CCC(=O)C4)[C@H]3CC[C@@]21C", "note": "[Norethynodrel]", "log": -0.00154}
{"smiles": "CCOC(=O)[N-]c1c[n+](N2CCOCC2)no1", "note": "[Molsidomine]", "log": 0.0542}
{"smiles": "CC[N+](CC)(CC)CCOc1cccc(OCC[N+](CC)(CC)CC)c1OCC[N+](CC)(CC)CC", "note": "[Gallamine triethiodide]", "log": 0.0996}
{"smiles": "CC(C)(C)NCC(O)c1cc(O)cc(O)c1", "note": "(stereo unspecified) [Terbutaline hemisulfate]", "log": -0.0473}
{"smiles": "NS(=O)(=O)c1cc2c(cc1Cl)NC(CC1CCCC1)NS2(=O)=O", "note": "(stereo unspecified) [Cyclopenthiazide]", "log": -0.106}
{"smiles": "Cc1ccccc1C(OCCN(C)C)c1ccccc1", "note": "(stereo unspecified) [Orphenadrine hydrochloride]", "log": 0.0943}
{"smiles": "CC(C)NCC(O)c1ccc(O)c(O)c1", "note": "(single isomer, unassigned; (-)) [(-)-Isoproterenol hydrochloride]", "log": 0.134}
{"smiles": "O=C1C(O)=C([C@H]2CC[C@H](c3ccc(Cl)cc3)CC2)C(=O)c2ccccc21", "note": "[Atovaquone]", "log": 0.0542}
{"smiles": "NC(=O)NC1NC(=O)NC1=O", "note": "(stereo unspecified) [Allantoin]", "log": 0.135}
{"smiles": "O=C1CCc2ccc(OCCCCN3CCN(c4cccc(Cl)c4Cl)CC3)cc2N1", "note": "[Aripiprazole]", "log": -0.247}
{"smiles": "CN(C)CCOC(c1ccc(Cl)cc1)c1ccccn1", "note": "(stereo unspecified) [Carbinoxamine maleate salt]", "log": -0.115}
{"smiles": "COC(=O)C1=C(C)NC(C)=C(C(=O)OCC(C)C)C1c1ccccc1[N+](=O)[O-]", "note": "(stereo unspecified) [Nisoldipine]", "log": -0.597}
{"smiles": "COC(=O)C1=C(C)NC(C)=C(C(=O)OCCN(C)Cc2ccccc2)C1c1cccc([N+](=O)[O-])c1", "note": "(stereo unspecified) [Nicardipine hydrochloride]", "log": 0.0943}
{"smiles": "CN1CCN(c2c(F)cc3c(=O)c(C(=O)O)cn4c3c2SCC4)CC1", "note": "[Rufloxacin]", "log": 0.154}
{"smiles": "Cc1cnc(C(=O)NCCc2ccc(S(=O)(=O)NC(=O)NC3CCCCC3)cc2)cn1", "note": "[Glipizide]", "log": 0.0683}
{"smiles": "COc1ccccc1N1CCN(CCCCNC(=O)c2ccc3ccccc3c2)CC1", "log": 0.0695}
{"smiles": "CCC1NC(=O)c2cc(S(N)(=O)=O)c(Cl)cc2N1", "note": "(stereo unspecified) [Quinethazone]", "log": -0.0455}
{"smiles": "CC(O)(P(=O)(O)O)P(=O)(O)O", "note": "[Etidronic acid, disodium salt]", "log": -0.0186}
{"smiles": "CCN(CC)CCOc1ccc(C(=C(Cl)c2ccccc2)c2ccccc2)cc1", "note": "[Clomiphene citrate (Z,E)]", "log": 0.156}
{"smiles": "CN(C)[C@@H]1C(O)=C(C(=O)NCNCCCC[C@H](N)C(=O)O)C(=O)[C@@]2(O)C(O)=C3C(=O)c4c(O)cccc4[C@@](C)(O)[C@H]3C[C@@H]12", "note": "[Lymecycline]", "log": -0.0785}
{"smiles": "CCCCNc1ccc(C(=O)OCCN(C)C)cc1", "note": "[Tetracaïne hydrochloride]", "log": -0.115}
{"smiles": "CN1CCOC(c2ccccc2)c2ccccc2C1", "note": "(stereo unspecified) [Nefopam hydrochloride]", "log": 0.0876}
{"smiles": "CN1CCC(=C2c3ccccc3CCc3sccc32)CC1", "note": "[Pizotifen malate]", "log": 0.0949}
{"smiles": "CCC(=O)OCC(=O)[C@@]1(OC(=O)CC)[C@@H](C)C[C@H]2[C@@H]3CCC4=CC(=O)C=C[C@]4(C)[C@@]3(Cl)[C@@H](O)C[C@@]21C", "note": "[Beclomethasone dipropionate]", "log": -1.4}
{"smiles": "CCN(CC)Cc1cc(Nc2ccnc3cc(Cl)ccc23)ccc1O", "note": "[Amodiaquin dihydrochloride dihydrate]", "log": 0.135}
{"smiles": "COc1ccccc1N1CCN(CCCNc2cc(=O)n(C)c(=O)n2C)CC1", "note": "[Urapidil hydrochloride]", "log": 0.137}
{"smiles": "Cn1c(=O)c2c(ncn2CCO)n(C)c1=O", "note": "[Etofylline]", "log": 0.0598}
{"smiles": "CC(C)NCC(O)c1cc(O)cc(O)c1", "note": "(stereo unspecified) [Metaproterenol sulfate, orciprenaline sulfate]", "log": -0.00598}
{"smiles": "O=C(O)CN(CCN(CC(=O)O)CC(=O)O)CCN(CC(=O)O)CC(=O)O", "note": "[Pentetic acid]", "log": -0.404}
{"smiles": "C#CCN(C)CCCOc1ccc(Cl)cc1Cl", "note": "[Clorgyline hydrochloride]", "log": 0.0466}
{"smiles": "C[n+]1ccccc1/C=N/O", "note": "[Pralidoxime chloride]", "log": -0.916}
{"smiles": "Cc1cccc(Nc2ccccc2C(=O)O)c1C", "note": "[Mefenamic acid]", "log": 0.175}
{"smiles": "CCC(C)n1ncn(-c2ccc(N3CCN(c4ccc(OCC5COC(Cn6cncn6)(c6ccc(Cl)cc6Cl)O5)cc4)CC3)cc2)c1=O", "note": "(stereo unspecified) [Itraconazole]", "log": -1.38}
{"smiles": "O=C(O)CCNC(=O)c1ccc(/N=N/c2ccc(O)c(C(=O)O)c2)cc1", "note": "[Balsalazide Sodium]", "log": 0.00113}
